# System: activated sludge
# Test: Fluoride determination by ion chromatography during the Zahn-Wellens test
structure (smiles),measurement,setting,value
"O=S(=O)(O)CCCCCCCCCCOC(F)(F)F [Example 5, Sodium 10-trifluoromethoxydecane-1-sulfonate]",mg/l of free fluoride,duration of the measurement 0 d,1.1 mg/L
same,mg/l of free fluoride,duration of the measurement 0.125 d,1.6 mg/L
same,mg/l of free fluoride,duration of the measurement 1 d,2.0 mg/L
same,mg/l of free fluoride,duration of the measurement 2 d,2.6 mg/L
same,mg/l of free fluoride,duration of the measurement 5 d,1.1 mg/L
same,mg/l of free fluoride,duration of the measurement 8 d,9.6 mg/L
same,mg/l of free fluoride,duration of the measurement 9 d,11.5 mg/L
same,mg/l of free fluoride,duration of the measurement 12 d,20.3 mg/L
same,mg/l of free fluoride,duration of the measurement 15 d,24.5 mg/L
same,mg/l of free fluoride,duration of the measurement 19 d,28.1 mg/L
same,mg/l of free fluoride,duration of the measurement 22 d,30.9 mg/L
same,mg/l of free fluoride,duration of the measurement 26 d,35.7 mg/L
same,mg/l of free fluoride,duration of the measurement 28 d,43.1 mg/L
